# Reference: publication PMC9938590
# By UniProt entry, the sequences of proteins in these tests, tags left out.
# UniProt Q9VMJ7: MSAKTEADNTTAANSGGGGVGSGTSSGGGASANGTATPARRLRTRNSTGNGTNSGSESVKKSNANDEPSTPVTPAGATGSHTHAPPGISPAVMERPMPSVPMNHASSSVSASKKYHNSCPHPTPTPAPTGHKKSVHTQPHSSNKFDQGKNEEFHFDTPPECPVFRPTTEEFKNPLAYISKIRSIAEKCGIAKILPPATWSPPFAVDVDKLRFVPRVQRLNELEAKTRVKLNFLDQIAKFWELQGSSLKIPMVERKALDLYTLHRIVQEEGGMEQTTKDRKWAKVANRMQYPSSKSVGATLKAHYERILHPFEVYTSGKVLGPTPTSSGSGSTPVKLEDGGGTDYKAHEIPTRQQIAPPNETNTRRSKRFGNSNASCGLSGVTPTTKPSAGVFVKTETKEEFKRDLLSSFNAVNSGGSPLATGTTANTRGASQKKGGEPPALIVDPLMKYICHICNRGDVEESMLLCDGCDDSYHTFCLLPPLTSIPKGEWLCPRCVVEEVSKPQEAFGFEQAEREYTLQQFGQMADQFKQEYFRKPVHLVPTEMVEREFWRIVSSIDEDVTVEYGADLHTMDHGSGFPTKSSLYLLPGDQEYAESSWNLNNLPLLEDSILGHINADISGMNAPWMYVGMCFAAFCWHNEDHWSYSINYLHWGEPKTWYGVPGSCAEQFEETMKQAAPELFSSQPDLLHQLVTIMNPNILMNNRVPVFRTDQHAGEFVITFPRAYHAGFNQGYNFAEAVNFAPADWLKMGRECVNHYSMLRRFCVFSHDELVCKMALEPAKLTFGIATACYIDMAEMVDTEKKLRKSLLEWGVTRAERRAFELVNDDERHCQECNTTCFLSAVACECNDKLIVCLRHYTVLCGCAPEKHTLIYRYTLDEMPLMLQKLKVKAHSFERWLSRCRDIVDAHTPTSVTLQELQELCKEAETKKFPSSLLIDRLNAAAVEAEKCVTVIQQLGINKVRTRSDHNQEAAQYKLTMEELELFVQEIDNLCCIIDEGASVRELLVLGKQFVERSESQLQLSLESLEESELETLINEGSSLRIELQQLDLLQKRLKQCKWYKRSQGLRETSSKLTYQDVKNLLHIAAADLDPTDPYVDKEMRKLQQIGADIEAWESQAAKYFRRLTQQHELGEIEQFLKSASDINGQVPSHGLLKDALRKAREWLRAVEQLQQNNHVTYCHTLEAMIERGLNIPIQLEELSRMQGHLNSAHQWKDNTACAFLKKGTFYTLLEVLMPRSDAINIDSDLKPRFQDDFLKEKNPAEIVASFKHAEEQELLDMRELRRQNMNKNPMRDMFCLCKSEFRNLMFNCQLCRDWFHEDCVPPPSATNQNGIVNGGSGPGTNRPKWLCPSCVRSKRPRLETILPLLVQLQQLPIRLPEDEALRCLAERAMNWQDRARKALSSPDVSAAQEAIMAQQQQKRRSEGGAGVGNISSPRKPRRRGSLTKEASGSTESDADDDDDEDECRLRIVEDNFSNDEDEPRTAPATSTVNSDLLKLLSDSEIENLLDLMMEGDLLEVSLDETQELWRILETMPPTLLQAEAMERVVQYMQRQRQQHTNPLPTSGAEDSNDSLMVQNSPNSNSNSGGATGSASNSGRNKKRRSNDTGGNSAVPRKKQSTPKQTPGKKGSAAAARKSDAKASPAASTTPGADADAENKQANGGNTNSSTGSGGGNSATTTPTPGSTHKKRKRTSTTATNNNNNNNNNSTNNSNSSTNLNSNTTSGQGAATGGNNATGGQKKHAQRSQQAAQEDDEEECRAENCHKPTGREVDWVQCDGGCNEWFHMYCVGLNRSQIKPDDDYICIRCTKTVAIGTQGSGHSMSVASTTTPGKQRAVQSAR
# UniProt P13709: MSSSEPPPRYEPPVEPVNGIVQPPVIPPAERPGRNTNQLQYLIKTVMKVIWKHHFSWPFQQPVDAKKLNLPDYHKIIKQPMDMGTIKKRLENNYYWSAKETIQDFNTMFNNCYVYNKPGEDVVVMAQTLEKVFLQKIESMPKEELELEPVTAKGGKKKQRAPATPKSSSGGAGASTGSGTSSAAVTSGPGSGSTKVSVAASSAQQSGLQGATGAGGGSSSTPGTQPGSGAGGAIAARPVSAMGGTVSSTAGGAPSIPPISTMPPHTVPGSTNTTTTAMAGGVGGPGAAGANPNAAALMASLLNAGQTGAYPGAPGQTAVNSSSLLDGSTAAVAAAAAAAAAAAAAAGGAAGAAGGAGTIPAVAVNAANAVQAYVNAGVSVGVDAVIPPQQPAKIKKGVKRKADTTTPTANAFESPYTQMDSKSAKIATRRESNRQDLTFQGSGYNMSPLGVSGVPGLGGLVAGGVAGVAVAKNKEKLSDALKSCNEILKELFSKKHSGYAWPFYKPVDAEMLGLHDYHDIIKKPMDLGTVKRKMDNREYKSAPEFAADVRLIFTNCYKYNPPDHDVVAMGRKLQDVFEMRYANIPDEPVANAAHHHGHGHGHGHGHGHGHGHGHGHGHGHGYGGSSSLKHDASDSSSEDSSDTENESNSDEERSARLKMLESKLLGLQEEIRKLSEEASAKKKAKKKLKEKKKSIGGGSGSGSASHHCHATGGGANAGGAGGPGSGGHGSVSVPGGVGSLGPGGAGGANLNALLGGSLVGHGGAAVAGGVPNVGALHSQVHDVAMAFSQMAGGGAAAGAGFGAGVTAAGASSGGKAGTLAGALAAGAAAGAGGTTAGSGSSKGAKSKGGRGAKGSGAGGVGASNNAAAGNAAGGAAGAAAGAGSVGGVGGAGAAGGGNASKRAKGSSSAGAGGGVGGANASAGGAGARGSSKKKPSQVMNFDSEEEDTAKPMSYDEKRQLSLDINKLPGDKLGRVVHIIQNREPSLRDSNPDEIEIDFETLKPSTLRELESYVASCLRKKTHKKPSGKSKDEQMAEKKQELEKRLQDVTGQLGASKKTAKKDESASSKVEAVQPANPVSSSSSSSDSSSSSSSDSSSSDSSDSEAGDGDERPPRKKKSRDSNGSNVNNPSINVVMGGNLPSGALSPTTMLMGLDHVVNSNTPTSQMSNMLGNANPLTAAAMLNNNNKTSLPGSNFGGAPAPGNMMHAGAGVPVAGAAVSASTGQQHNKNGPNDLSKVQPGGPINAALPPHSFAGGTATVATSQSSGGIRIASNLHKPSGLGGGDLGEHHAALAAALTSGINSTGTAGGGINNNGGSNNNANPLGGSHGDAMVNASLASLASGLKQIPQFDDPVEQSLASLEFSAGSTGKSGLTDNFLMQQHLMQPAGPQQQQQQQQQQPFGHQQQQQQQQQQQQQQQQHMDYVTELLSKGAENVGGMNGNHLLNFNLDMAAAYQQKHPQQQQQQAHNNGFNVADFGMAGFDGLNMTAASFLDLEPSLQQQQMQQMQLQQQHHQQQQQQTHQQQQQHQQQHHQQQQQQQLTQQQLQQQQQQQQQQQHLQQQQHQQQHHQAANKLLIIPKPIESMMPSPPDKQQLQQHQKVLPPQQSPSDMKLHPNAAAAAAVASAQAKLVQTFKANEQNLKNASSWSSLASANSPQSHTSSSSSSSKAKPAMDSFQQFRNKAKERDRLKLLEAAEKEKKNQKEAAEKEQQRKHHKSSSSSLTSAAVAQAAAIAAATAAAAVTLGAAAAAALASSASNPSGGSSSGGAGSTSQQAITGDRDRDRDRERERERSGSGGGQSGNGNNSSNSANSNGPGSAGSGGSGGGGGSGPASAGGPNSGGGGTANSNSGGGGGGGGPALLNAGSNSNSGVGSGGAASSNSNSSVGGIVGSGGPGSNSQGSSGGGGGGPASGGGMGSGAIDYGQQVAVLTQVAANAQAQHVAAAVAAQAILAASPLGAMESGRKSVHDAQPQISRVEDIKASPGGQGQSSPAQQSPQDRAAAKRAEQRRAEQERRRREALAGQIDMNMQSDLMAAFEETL
# UniProt O46036: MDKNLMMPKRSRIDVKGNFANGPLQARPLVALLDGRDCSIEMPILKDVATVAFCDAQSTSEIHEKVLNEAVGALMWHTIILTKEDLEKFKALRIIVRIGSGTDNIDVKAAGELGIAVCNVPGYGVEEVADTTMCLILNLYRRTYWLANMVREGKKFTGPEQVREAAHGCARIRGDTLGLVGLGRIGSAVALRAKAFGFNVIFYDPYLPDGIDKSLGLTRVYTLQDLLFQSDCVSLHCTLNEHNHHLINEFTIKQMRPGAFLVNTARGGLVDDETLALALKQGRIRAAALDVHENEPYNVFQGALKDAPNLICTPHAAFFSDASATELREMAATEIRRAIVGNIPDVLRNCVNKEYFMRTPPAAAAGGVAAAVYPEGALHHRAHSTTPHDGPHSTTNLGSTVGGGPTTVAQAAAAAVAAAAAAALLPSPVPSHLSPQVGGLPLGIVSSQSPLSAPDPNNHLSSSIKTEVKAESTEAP
# UniProt Q7KRS9: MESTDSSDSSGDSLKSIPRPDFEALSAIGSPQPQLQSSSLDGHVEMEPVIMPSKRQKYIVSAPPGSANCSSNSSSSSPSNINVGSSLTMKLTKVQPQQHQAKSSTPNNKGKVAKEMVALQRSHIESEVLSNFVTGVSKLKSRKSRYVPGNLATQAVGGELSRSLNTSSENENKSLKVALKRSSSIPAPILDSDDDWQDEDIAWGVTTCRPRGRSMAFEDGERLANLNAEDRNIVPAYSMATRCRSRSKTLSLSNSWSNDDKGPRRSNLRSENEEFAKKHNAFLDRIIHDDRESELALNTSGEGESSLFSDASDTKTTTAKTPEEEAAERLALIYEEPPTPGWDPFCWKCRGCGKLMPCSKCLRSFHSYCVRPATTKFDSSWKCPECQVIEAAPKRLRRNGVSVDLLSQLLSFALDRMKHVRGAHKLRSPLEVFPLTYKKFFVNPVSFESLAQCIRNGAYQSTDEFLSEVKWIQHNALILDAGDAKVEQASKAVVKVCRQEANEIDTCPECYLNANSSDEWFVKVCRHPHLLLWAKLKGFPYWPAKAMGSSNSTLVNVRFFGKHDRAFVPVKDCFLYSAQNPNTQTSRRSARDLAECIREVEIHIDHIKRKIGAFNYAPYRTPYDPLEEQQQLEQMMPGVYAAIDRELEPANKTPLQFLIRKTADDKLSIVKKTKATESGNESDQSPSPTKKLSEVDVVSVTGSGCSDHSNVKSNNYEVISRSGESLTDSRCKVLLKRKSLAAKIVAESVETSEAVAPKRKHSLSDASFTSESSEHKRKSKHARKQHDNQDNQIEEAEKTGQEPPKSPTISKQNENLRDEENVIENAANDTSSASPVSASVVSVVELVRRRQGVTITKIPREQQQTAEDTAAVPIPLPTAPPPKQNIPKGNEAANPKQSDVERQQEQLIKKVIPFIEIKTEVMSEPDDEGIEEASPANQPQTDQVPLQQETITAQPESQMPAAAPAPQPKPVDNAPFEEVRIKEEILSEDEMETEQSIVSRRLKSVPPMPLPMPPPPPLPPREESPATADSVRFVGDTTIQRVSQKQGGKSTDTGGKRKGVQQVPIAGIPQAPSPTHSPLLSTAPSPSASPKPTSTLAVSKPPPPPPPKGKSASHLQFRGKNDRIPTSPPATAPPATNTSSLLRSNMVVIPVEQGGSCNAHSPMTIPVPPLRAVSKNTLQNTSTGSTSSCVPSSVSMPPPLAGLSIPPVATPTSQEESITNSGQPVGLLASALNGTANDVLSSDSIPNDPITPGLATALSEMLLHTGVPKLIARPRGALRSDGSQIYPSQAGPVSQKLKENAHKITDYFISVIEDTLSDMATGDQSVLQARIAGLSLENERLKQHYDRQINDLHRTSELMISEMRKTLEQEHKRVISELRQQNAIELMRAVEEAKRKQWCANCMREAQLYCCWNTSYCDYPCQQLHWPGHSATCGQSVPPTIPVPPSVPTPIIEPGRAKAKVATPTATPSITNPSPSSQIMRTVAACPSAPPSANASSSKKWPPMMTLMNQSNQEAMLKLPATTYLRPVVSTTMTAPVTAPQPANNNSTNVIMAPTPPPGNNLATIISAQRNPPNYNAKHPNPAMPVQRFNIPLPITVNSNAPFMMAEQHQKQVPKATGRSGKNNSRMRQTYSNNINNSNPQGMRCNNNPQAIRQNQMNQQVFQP
# UniProt Q24572: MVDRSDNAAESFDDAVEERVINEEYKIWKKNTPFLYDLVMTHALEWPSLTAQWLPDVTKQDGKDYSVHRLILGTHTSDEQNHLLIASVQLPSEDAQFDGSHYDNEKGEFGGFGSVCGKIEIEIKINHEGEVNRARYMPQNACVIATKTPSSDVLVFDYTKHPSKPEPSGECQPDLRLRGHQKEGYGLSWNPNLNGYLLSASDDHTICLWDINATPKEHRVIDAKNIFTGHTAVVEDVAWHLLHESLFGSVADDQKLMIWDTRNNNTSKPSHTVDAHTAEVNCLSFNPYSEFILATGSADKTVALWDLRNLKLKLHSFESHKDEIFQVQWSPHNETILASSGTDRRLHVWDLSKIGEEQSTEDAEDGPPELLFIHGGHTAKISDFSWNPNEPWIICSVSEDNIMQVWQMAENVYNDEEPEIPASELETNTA
# Biological target: TurboID-tagged KDM5 (Lysine demethylase 5), N-terminal (NT-KDM5) or C-terminal (CT-KDM5) TurboID fusion (Drosophila melanogaster) (UniProt Q9VMJ7)
# Experiment: proximity labelling; TurboID fused to the N- or C-terminus of KDM5, expressed with Ubi-Gal4 in kdm5^140 null flies; adult heads lysed in RIPA, biotinylated proteins recovered on streptavidin magnetic beads, on-bead trypsin digestion, LC-MS/MS; enrichment over control (kdm5^140;gkdm5:HA) in experiments 1 and 2 and over dCas9:TurboID in experiment 2; nuclear proteins filtered at p < 0.1 across six datasets (high confidence interactors)
row,Molecule,binding
1,"Mediator complex subunit MED17 (protein, UniProt Q9VEC1 1-642) MSNSVNISVETTCENQIREIGYDGTELYQPPPTLSESLAKCAARIDFSKTSLDDLKKEEKSAAAAADEDKDATQFQESLWPWDAVRNKLKDALTEICVLSDVISIAKDKRYLVLDPLLEEADDTKPIVQVYSRKKAISQAAQVLLSGAERLRNAHSEQRNRNVSDFHIELLRLRQNWRLKKVSNAIIGDLSYRTAGSKFGMSGTFEVTKAEETGDEDTASSSNSSSSVSGNNGMQLKASSALRVIVPAELQGVAYIKVITQKDQEDLCTAQLNLMGHGPNITAQVGVWQKTLEFAQNVLFCKELFAQLAREAIQLQAPIPHVVIGNQIRATLLPNIQLIISLCHSTTFDSSQPAPINDHDHVLEHSLHQLLREVHYKNSHHPFPHPASAPLGPTKKRMLAGPMAADRETLLDMTKSQTILEQIIAQAQHIFMRKRTQYVLDTLARDVKDPQIVSHWNAMNSPTMSCVKINIVTHGYDAIGRTSLVIHVKERSLKCICRDGRVMRLSYEPQELRDLILCQINSHQISCLISLARCMSWTVLSNSNHLGIGKVEPLGNASSCLLASPNSDRMIAVQIRCDPQIDVKVYIARSPRQDFFPSPLVPEKLWENLGGTFKEVRFDKIEGKSFLNKMEFLMASLTSNTA",binds
2,"TFIID subunit Taf4 (protein, UniProt P47825 1-921) MNTSQTAAGNRITFTSQPLPNGTISIAGNPGAVISTAQLPNTTTIKTIQAGIGGQHQGLQQVHHVQQQQQSQQQQQQQQQTQSAGQPLLNSMLPAGVVVGMRQQAPSQQQQKNVPTNPLSRVVINSHMAGVRPQSPSITLSTLNTGQTPALLVKTDNGFQLLRVGTTTGPPTVTQTITNTSNNSNTTSTTNHPTTTQIRLQTVPAAASMTNTTATSNIIVNSVASSGYANSSQPPHLTQLNAQAPQLPQITQIQTIPAQQSQQQQVNNVSSAGGTATAVSSTTAATTTQQGNTKEKCRKFLANLIELSTREPKPVEKNVRTLIQELVNANVEPEEFCDRLERLLNASPQPCLIGFLKKSLPLLRQALYTKELVIEGIKPPPQHVLGLAGLSQQLPKIQAQIRPIGPSQTTTIGQTQVRMITPNALGTPRPTIGHTTISKQPPNIRLPTAPRLVNTGGIRTQIPSLQVPGQANIVQIRGPQHAQLQRTGSVQIRATTRPPNSVPTANKLTAVKVGQTQIKAITPSLHPPSLAAISGGPPPTPTLSVLSTLNSASTTTLPIPSLPTVHLPPEALRAREQMQNSLNHNSNHFDAKLVEIKAPSLHPPHMERINASLTPIGAKTMARPPPAINKAIGKKKRDAMEMDAKLNTSSGGAASAANSFFQQSSMSSMYGDDDINDVAAMGGVNLAEESQRILGCTENIGTQIRSCKDEVFLNLPSLQARIRAITSEAGLDEPSQDVAVLISHACQERLKNIVEKLAVIAEHRIDVIKLDPRYEPAKDVRGQIKFLEELDKAEQKRHEELEREMLLRAAKSRSRVEDPEQAKMKARAKEMQRAEMEELRQRDANLTALQAIGPRKKLKLDGETVSSGAGSSGGGVLSSSGSAPTTLRPRIKRVNLRDMLFYMEQEREFCRSSMLFKTYLK",binds
3,"TFIID subunit Taf6 (protein, UniProt P49847 1-606) MSGKPSKPSSPSSSMLYGSSISAESMKVIAESIGVGSLSDDAAKELAEDVSIKLKRIVQDAAKFMNHAKRQKLSVRDIDMSLKVRNVEPQYGFVAKDFIPFRFASGGGRELHFTEDKEIDLGEITSTNSVKIPLDLTLRSHWFVVEGVQPTVPENPPPLSKDSQLLDSVNPVIKMDQGLNKDAAGKPTTGKIHKLKNVETIHVKQLATHELSVEQQLYYKEITEACVGSDEPRRGEALQSLGSDPGLHEMLPRMCTFIAEGVKVNVVQNNLALLIYLMRMVRALLDNPSLFLEKYLHELIPSVMTCIVSKQLCMRPELDNHWALRDFASRLMAQICKNFNTLTNNLQTRVTRIFSKALQNDKTHLSSLYGSIAGLSELGGEVIKVFIIPRLKFISERIEPHLLGTSISNTDKTAAGHIRAMLQKCCPPILRQMRSAPDTAEDYKNDFGFLGPSLCQAVVKVRNAPASSIVTLSSNTINTAPITSAAQTATTIGRVSMPTTQRQGSPGVSSLPQIRAIQANQPAQKFVIVTQNSPQQGQAKVVRRGSSPHSVVLSAASNAASASNSNSSSSGSLLAAAQRSSDNVCVIAGSEAPAVDGITVQSFRAS",binds
4,"TFIID subunit Taf9 (protein, UniProt Q27272 1-278) MSAEKSDKAKISAQIKHVPKDAQVIMSILKELNVQEYEPRVVNQLLEFTFRYVTCILDDAKVYANHARKKTIDLDDVRLATEVTLDKSFTGPLERHVLAKVADVRNSMPLPPIKPHCGLRLPPDRYCLTGVNYKLRATNQPKKMTKSAVEGRPLKTVVKPVSSANGPKRPHSVVAKQQVVTIPKPVIKFTTTTTTKTVGSSGGSGGGGGQEVKSESTGAGGDLKMEVDSDAAAVGSIAGASGSGAGSASGGGGGGGSSGVGVAVKREREEEEFEFVTN",binds
5,"Drosophila Sumo (ortholog of the small ubiquitin-like modifier SUMO2) (protein, UniProt O97102 1-90) MSDEKKGGETEHINLKVLGQDNAVVQFKIKKHTPLRKLMNAYCDRAGLSMQVVRFRFDGQPINENDTPTSLEMEEGDTIEVYQQQTGGAP",binds
6,"Mediator complex subunit MED1 (protein, UniProt Q9VP05 1-1475) MSGSNAKSSGTGFGSHIPSIEEKNKQIQQETMMEKLRAKYRNKPKSYEEIKKSVRMYFIEKHYPLDPLCKATLQSALDKLQHYIKVTSRHGLVERLESLSRQLGLKFMEDQQLLFISTDMFYVEILLDAAGSLSDVKVHHECKIEQQSSELVACLKSGDFADFTVQLEGLSSIYQLNAEPKVKKKAFVALQAMETDIQSLYQLHLQGHSGDSYSLMTSSSVGLVLPRRGGHPMRLTYFCPPLHLPEGDPKLASGDFTIDQVMRSSYGLSATINLEGSSANKLQTLPTVTLVRDAQTGLEVPTYAQLNQNNSLLMPATFVLRLNKPMPVCLESLKALGLPGLDSVATPPGPPTTVLNLIVQTASKQAIKNTQRGLYVNLPKETHCYFFTDNRKLQGTLVSSLPFTEPAQVPRIVAFLKKQALFYTLLASCVREQQKQYNDMDSTVILEVTAVSFNQITVELQHPYEESLATVDFLLEDGQPTCSVYCLTNEYELLSQKLTRTARKVVSIPMVIYKLLKCWDEEHEFKLHGAIGPGSGSGAIGGGGMSGGGPVSGVGNNFSQFSMDTPTPSDGSLPGGGFANINNLKMDAKSRSLADAFAASTSAAAAIAGLINLKRETDPQSGSSASGTTVSGSSSSSGSAKTSDHDIADKYKNIWKDKTPNLKHCVSITPIPGDGKSGSAGGVSGVEVQRTGGIEIIPLNAQAAIAGGGVTASSSATPTTITITPITGKDPSKDSTKKSTAASAGVGVAAKRPHESSTSSSSTSGCSGSGSSMSSSASSGSSDTQKEKKRKKKRDDSPMGPPEKIYSRQNSPAGGADASATGGVVRKFSSPSSSPKAGGGGQGLMAGVPTARPSPKHSPVYSSPKHNTASNSPKSPFGTHSPKHGSSGKPSMSTLKSAATAATILSPKGDKSSSAVGNTSSGPSASSGSSGATGLVRSFASVGAPPPPPPIPPLASSSGSISSSQSLKKEKTSSASGSSSTSSSATAGVASGGGISPASVAAAVAALKSSQQQMKSVASLSHLAAGGGLGSYAAPSGAGASGAAAVVVGAGAGAGAGASGLELSALRKGMAGGAVSLMTSTAALAPTIPAPTTTVAAGSAASLVSPVSAVVGQGQETAGAAAAATLATATILQQQPQPGAAPTSSCLTTSGGSSDSAGSINPAGASTEYMVKPSSQEGLKLTINKTGSSKSSGTGSGSSSSSGLQAKAKSSSSGATSFAGSTGSTKKQHTGLKPGVNSGPASKKATAAVSSATASSSKHFFQKANSSGNLSSKLSGSGSGGGIPLTKSNSTNSFQEHNAPRRRPSMGALASGSSGGGSGQRKLGSASGGGSGSSGSVSPALSGSMSQPPPRFDHHTDMMTILQYASPTMAASMEGFIKGLHNKFQIPKLSQRGSGGNTTSGRSTPSGSSEPALAGTSSSILGPIASSTGLTEPEAKPPVPPSQSGNEGLLNLSSTAGTPSADGIDEELLASLAGE",binds
7,"transcription factor Myc (protein, UniProt Q9W4S7 1-717) MALYRSDPYSIMDDQLFSNISIFDMDNDLYDMDKLLSSSTIQSDLEKIEDMESVFQDYDLEEDMKPEIRNIDCMWPAMSSCLTSGNGNGIESGNSAASSYSETGAVSLAMVSGSTNLYSAYQRSQTTDNTQSNQQHVVNSAENMPVIIKKELADLDYTVCQKRLRLSGGDKKSQIQDEVHLIPPGGSLLRKRNNQDIIRKSGELSGSDSIKYQRPDTPHSLTDEVAASEFRHNVDLRACVMGSNNISLTGNDSDVNYIKQISRELQNTGKDPLPVRYIPPINDVLDVLNQHSNSTGGQQQLNQQQLDEQQQAIDIATGRNTVDSPPTTGSDSDSDDGEPLNFDLRHHRTSKSGSNASITTNNNNSNNKNNKLKNNSNGMLHMMHITDHSYTRCNDMVDDGPNLETPSDSDEEIDVVSYTDKKLPTNPSCHLMGALQFQMAHKISIDHMKQKPRYNNFNLPYTPASSSPVKSVANSRYPSPSSTPYQNCSSASPSYSPLSVDSSNVSSSSSSSSSQSSFTTSSSNKGRKRSSLKDPGLLISSSSVYLPGVNNKVTHSSMMSKKSRGKKVVGTSSGNTSPISSGQDVDAMDRNWQRRSGGIATSTSSNSSVHRKDFVLGFDEADTIEKRNQHNDMERQRRIGLKNLFEALKKQIPTIRDKERAPKVNILREAAKLCIQLTQEEKELSMQRQLLSLQLKQRQDTLASYQMELNESRSVSG",no binding

# Biological target: TurboID-tagged KDM5 (Lysine demethylase 5), N-terminal (NT-KDM5) or C-terminal (CT-KDM5) TurboID fusion (Drosophila melanogaster) (UniProt Q9VMJ7)
# Experiment: as above
# Remark: another data set of the same source
row,Molecule,binding
1,Trr/KMT2C (methyltransferase responsible for depositing H3K4me1) (from UniProt Q8IRW8 1-2431) (enzyme),binds
2,Mi-2 (nucleosome remodeler) (from UniProt O97159 1-1982),binds
3,"female sterile (1) homeotic (fs(1)h), ortholog of the acetyl-histone binding Brd2/Brd4 (from UniProt P13709 1-2038)",binds
4,Mediator complex subunit MED14 (from UniProt Q9W0P8 1-1553),binds
5,C-terminal binding protein (CtBP) transcriptional repressor (from UniProt O46036 1-476),binds
6,NURF chromatin remodeler component Iswi (from UniProt Q24368 1-1027),binds
7,Zmynd8 (acetyl-lysine binding protein) (from UniProt Q7KRS9 1-1664),binds
8,chromatin assembly factor 1 (Caf1; Caf1-55) (from UniProt Q24572 1-430),binds

# Results are given in words; binding and its absence hold for the method and conditions named. In cells and extracts the contact can be indirect. A yes stands for co-enrichment or nearness to the bait. Other partners may have been found. For part of these data: No binding means not detected with the bait. For part of these data: Sequences can lack the tags named with a protein.
